We go through 36 targets from the supplement of paper PMC12819154, “High-throughput peptide-centric local stability assay extends protein–ligand identification to membrane proteins, tissues and bacteria” (Nature Structural & Molecular Biology, 2025).

Protein sequences, listed by entry. Tags and fused reporters are not part of them. Lines headed by an entry give the natural chain unless they say otherwise; changes in a name come on top.
UniProt Q9BVW5: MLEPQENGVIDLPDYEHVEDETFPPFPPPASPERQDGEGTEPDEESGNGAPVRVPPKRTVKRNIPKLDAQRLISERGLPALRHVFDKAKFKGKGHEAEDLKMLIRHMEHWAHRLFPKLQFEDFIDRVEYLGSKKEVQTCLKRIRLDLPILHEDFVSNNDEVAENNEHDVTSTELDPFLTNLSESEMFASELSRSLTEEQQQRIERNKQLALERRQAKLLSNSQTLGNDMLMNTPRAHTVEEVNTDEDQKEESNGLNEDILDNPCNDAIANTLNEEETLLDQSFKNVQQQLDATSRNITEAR
UniProt Q99717: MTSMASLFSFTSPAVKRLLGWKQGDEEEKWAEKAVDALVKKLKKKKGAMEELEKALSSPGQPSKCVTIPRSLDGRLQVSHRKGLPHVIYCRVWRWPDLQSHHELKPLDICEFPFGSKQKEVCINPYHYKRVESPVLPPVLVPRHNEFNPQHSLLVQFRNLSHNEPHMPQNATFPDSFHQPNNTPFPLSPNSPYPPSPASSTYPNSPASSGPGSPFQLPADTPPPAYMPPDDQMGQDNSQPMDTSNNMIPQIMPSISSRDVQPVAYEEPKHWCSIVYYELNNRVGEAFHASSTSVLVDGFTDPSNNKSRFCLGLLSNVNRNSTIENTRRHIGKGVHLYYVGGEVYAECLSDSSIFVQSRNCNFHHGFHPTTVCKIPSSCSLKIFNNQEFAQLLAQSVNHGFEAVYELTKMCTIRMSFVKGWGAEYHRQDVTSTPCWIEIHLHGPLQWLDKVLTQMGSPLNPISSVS
UniProt Q9BV57: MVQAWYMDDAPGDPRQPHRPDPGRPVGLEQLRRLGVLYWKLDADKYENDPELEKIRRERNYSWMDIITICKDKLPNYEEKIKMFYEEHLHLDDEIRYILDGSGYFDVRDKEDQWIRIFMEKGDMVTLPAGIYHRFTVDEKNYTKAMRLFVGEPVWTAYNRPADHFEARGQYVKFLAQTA
UniProt Q9BUI4: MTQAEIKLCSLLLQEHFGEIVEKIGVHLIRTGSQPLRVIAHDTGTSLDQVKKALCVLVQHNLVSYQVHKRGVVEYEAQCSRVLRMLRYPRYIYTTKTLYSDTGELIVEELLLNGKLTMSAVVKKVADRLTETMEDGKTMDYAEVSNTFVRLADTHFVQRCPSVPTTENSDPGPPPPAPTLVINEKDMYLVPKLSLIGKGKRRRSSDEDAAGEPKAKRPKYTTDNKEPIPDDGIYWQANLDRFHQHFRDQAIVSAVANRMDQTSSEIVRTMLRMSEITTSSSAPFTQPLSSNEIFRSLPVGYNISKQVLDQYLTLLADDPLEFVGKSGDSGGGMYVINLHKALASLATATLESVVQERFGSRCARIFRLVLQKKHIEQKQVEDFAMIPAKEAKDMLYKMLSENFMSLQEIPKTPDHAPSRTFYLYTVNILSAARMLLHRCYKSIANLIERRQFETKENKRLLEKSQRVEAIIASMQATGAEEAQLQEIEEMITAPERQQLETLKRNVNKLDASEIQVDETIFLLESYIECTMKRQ
UniProt Q9BRX5: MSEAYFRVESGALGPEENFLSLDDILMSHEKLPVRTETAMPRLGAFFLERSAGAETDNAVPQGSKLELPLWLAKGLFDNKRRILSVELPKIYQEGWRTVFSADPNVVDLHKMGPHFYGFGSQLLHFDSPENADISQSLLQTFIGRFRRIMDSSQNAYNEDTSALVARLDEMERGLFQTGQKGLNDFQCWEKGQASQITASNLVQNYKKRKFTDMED
UniProt Q9BPW8: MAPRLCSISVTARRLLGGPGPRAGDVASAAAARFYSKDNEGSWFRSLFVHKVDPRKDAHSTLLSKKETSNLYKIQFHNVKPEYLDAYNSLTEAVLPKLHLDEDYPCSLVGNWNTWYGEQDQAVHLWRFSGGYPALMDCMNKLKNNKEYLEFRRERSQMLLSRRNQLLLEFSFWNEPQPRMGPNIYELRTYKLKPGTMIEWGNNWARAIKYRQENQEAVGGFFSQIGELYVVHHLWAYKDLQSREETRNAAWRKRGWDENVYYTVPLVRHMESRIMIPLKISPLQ
UniProt Q9BSM1: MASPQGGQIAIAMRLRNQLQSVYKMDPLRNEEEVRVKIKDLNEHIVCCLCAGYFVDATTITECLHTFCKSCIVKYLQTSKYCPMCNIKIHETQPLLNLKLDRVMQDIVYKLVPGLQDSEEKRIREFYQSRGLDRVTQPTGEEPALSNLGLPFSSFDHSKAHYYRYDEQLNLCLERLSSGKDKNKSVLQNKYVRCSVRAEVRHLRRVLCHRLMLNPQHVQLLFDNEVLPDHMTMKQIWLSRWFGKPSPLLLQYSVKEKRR
UniProt Q9BQ15: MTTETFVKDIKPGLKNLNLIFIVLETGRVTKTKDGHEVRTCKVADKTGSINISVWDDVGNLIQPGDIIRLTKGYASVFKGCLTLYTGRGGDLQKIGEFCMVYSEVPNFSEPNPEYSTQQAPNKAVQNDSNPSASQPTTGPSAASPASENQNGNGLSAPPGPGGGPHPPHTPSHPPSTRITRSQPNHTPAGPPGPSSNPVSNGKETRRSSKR
UniProt Q9BV20: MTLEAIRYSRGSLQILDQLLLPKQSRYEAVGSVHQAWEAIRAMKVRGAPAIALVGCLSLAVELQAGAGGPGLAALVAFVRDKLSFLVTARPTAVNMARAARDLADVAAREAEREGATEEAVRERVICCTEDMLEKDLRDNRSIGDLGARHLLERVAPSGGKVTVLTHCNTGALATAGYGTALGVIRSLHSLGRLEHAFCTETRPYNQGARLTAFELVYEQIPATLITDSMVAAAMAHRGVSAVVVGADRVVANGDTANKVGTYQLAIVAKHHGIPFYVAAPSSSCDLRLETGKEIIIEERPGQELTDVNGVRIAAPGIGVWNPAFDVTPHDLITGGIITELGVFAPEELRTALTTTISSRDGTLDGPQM
UniProt Q9BRK5: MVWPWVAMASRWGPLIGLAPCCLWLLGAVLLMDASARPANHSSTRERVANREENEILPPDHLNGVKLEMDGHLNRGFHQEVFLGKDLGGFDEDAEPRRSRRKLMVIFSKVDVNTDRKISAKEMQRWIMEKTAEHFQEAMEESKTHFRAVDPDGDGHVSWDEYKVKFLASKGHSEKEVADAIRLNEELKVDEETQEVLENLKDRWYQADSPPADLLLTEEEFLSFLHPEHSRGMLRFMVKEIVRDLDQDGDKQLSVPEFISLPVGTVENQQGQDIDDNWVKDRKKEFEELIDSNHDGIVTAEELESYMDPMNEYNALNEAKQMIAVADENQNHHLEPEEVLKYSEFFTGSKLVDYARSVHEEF
UniProt Q9BUP3: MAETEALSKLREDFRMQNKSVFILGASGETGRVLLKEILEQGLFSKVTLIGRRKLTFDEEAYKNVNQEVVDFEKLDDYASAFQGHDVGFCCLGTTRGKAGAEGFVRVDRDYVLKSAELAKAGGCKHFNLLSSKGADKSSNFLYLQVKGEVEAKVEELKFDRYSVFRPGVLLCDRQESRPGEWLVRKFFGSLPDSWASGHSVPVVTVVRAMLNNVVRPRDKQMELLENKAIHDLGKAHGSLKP
UniProt Q9BV44: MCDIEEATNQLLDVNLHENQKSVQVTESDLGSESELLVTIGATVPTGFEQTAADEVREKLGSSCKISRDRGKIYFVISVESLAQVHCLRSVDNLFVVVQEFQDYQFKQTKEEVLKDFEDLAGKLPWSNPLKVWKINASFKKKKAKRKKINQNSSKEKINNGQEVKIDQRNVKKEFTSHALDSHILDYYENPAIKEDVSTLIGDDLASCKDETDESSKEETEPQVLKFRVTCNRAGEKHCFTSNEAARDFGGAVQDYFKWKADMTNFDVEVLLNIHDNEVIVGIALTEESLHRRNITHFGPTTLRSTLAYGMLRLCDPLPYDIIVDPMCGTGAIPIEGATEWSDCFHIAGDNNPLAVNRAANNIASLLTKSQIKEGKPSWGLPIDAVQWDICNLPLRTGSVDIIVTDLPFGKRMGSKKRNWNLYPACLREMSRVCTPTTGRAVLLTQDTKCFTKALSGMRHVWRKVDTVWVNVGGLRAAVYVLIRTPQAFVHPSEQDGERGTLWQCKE
UniProt Q9BQI3, whole entry: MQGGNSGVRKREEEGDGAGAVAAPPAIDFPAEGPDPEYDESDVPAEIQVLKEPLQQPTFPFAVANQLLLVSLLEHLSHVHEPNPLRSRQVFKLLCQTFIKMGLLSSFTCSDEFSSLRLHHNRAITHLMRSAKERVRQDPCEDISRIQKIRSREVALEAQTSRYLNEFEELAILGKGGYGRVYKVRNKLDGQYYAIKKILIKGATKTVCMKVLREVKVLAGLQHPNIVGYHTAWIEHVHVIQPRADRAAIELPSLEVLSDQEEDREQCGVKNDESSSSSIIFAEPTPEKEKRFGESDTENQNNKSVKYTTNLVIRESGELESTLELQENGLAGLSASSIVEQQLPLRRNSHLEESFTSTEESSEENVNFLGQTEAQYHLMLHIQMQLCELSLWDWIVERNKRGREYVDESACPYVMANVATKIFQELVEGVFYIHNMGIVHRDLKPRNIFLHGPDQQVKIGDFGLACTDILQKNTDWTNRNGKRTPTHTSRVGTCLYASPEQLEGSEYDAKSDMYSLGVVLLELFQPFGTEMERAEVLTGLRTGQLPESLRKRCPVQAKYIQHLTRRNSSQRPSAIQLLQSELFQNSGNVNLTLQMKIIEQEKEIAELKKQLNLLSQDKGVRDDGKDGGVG
UniProt Q9BVV6: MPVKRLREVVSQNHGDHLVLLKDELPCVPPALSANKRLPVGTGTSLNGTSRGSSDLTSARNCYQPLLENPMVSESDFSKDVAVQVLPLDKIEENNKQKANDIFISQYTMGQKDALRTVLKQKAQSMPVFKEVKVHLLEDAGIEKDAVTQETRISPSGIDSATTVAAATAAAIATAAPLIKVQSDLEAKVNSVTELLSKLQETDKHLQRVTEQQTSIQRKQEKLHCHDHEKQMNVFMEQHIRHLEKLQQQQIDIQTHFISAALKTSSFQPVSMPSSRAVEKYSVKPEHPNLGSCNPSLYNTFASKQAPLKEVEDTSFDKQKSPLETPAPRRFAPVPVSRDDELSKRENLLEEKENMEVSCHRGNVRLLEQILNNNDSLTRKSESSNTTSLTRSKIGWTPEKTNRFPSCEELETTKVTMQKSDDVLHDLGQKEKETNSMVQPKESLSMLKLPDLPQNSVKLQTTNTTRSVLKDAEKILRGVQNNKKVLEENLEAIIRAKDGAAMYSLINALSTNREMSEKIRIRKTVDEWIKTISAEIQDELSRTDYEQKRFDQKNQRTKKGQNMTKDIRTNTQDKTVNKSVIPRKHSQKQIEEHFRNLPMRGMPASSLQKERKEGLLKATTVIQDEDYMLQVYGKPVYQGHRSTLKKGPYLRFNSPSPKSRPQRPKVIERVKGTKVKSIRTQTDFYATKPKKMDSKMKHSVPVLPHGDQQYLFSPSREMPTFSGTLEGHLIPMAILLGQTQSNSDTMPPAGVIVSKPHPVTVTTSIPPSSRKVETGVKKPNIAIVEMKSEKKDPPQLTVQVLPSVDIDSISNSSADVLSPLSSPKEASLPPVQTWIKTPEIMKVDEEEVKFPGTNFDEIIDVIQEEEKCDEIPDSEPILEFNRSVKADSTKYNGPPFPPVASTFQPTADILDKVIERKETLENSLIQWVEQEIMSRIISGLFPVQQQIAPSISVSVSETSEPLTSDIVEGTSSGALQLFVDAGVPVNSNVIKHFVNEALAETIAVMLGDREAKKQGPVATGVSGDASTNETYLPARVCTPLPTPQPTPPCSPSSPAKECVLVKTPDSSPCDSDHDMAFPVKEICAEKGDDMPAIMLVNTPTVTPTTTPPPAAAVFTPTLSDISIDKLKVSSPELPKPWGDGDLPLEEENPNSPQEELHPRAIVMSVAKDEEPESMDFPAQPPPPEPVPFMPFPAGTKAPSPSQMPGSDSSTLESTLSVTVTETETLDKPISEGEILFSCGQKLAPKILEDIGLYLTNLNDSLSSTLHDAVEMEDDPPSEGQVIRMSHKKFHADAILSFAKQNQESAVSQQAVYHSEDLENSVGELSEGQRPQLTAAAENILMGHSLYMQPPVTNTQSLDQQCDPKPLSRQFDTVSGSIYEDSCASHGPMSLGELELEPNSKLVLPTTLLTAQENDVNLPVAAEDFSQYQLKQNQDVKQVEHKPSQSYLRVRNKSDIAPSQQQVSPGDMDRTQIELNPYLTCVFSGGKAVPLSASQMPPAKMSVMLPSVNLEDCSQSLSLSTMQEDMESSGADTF
UniProt Q9BRT8: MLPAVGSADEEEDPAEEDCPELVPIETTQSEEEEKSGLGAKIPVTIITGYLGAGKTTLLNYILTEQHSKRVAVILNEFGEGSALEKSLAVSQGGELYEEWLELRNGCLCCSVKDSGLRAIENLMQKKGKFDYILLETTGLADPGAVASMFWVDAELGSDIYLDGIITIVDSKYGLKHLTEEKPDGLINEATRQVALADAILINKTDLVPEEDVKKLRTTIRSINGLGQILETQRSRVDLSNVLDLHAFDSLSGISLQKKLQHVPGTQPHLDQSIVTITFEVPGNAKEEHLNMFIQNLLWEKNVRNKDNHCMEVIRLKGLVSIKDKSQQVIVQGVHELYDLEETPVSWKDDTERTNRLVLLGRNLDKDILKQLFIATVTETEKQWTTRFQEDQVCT

The list shows a part of the results. Most entries show no effect beyond the scatter of the controls.

Compound in this assay: CN[C@@H]1C[C@H]2O[C@@](C)([C@@H]1OC)n1c3ccccc3c3c4c(c5c6ccccc6n2c5c31)C(=O)NC4 [staurosporine]
Put plainly: log2 fold change of tryptic peptide abundance, ligand vs vehicle (limited proteolysis) (log2 ratio); higher = more trypsin-susceptible (destabilized). The conditions noted are these: ligand concentration: 20 uM; sample: K562 cleared lysate; digestion: 4 min, 22 C (HT-PELSA RT4min, Orbitrap Astral).
Take “SEPTIN5 (peptide sequence: QYVGFATLPNQVHRK, peptide start residue: 23) (UniProt Q99719)”: the log2 fold change is -0.121.

As to “TIPIN (peptide sequence: LQFEDFIDRVEYLGSKK, peptide start residue: 118) (UniProt Q9BVW5)”, the log2 fold change came out at 0.253.

“TBCD (peptide sequence: LGLTFLKPK, peptide start residue: 304) (UniProt Q9BTW9)”: the log2 fold change is -0.234.

“MNT (peptide sequence: LSHRPQPELLK, peptide start residue: 355) (UniProt Q99583)”: the log2 fold change was 0.352.

Regarding “THUMPD2 (peptide sequence: TASTSFEASNHK, peptide start residue: 453) (UniProt Q9BTF0)”, the log2 fold change was -0.358.

Take “TRIM56 (peptide sequence: GSLLGDFLTAYHGLEKPR, peptide start residue: 709) (UniProt Q9BRZ2)”: the log2 fold change turned out to be 0.432.

As for “SMAD5 (peptide sequence: ALSSPGQPSK, peptide start residue: 55) (UniProt Q99717)”, the log2 fold change came to 0.0646.

For “PAAF1 (peptide sequence: GGLGVSSSTDGTMK, peptide start residue: 104) (UniProt Q9BRP4)”, the log2 fold change was -0.311.

On to “ADI1 (peptide sequence: LFVGEPVWTAYNRPADHFEAR, peptide start residue: 148) (UniProt Q9BV57)”, for which the log2 fold change stood at 0.474.

Take “PDCD2L (peptide sequence: SGDQTFYK, peptide start residue: 245) (UniProt Q9BRP1)”: the log2 fold change is -0.123.

Take “TTC1 (peptide sequence: ALEMCPSCFQKER, peptide start residue: 142) (UniProt Q99614)”: the log2 fold change stood at 0.325.

On to “POLR3C (peptide sequence: QQLETLKR, peptide start residue: 497) (UniProt Q9BUI4)”, for which the log2 fold change turned out to be 0.427.

Regarding “GINS3 (peptide sequence: LELPLWLAK, peptide start residue: 66) (UniProt Q9BRX5)”, the log2 fold change was determined as 0.445.

Take “SH3GL3 (peptide sequence: MSVAGLKK, peptide start residue: 1) (UniProt Q99963)”: the log2 fold change amounted to 0.86.

On to “C12orf57 (peptide sequence: SYEAQDPEIASLSGK, peptide start residue: 87) (UniProt Q99622)”, for which the log2 fold change was -0.317.

Take “MIPEP (peptide sequence: HYQTGQPLPK, peptide start residue: 546) (UniProt Q99797)”: the log2 fold change was -0.524.

On to “MRPL45 (peptide sequence: WSFVESLEPSHVVQVR, peptide start residue: 183) (UniProt Q9BRJ2)”, for which the log2 fold change was -0.408.

With “AIF1L (peptide sequence: LVMMFEGK, peptide start residue: 122) (UniProt Q9BQI0)”, the log2 fold change amounted to 0.574.

Regarding “NIPSNAP1 (peptide sequence: MGPNIYELR, peptide start residue: 180) (UniProt Q9BPW8)”, the log2 fold change was 0.332.

On to “PCGF1 (peptide sequence: LVPGLQDSEEKR, peptide start residue: 111) (UniProt Q9BSM1)”, for which the log2 fold change was -0.0649.

Turning to “NABP2 (peptide sequence: SQPNHTPAGPPGPSSNPVSNGKETR, peptide start residue: 182) (UniProt Q9BQ15)”, the log2 fold change stood at 0.168.

As to “MRI1 (peptide sequence: DKLSFLVTARPTAVNMAR, peptide start residue: 81) (UniProt Q9BV20)”, the log2 fold change came out at 0.254.

As to “MTR (peptide sequence: EAMHGVFLYHAIK, peptide start residue: 592) (UniProt Q99707)”, the log2 fold change came to 0.341.

In the case of “C17orf80 (peptide sequence: TVMSHGCENFNTR, peptide start residue: 326) (UniProt Q9BSJ5)”, the log2 fold change is 0.305.

Turning to “PKMYT1 (peptide sequence: VGQHPCCVR, peptide start residue: 164) (UniProt Q99640)”, the log2 fold change was 0.457.

As for “SDF4 (peptide sequence: YSEFFTGSK, peptide start residue: 342) (UniProt Q9BRK5)”, the log2 fold change was -0.116.

For the target “HTATIP2 (peptide sequence: VDRDYVLK, peptide start residue: 107) (UniProt Q9BUP3)”, the log2 fold change came out at 0.25.

As to “BARD1 (peptide sequence: TLAEINQK, peptide start residue: 210) (UniProt Q99728)”, the log2 fold change is 0.242.

In the case of “GNL3 (peptide sequence: VIEASDVVLEVLDARDPLGCR, peptide start residue: 137) (UniProt Q9BVP2)”, the log2 fold change amounted to 0.377.

As for “THUMPD3 (peptide sequence: VDTVWVNVGGLR, peptide start residue: 465) (UniProt Q9BV44)”, the log2 fold change is -0.168.

“UniProt Q9BQI3 (peptide sequence: IIEQEKEIAELKK, peptide start residue: 597)”: the log2 fold change is -0.573.

On to “LZTS2 (peptide sequence: EALREDCAAQAQR, peptide start residue: 370) (UniProt Q9BRK4)”, for which the log2 fold change was -0.338.

For “KIAA0586 (peptide sequence: QVEHKPSQSYLR, peptide start residue: 1437) (UniProt Q9BVV6)”, the log2 fold change is -0.709.

“RNF126 (peptide sequence: DDYALGER, peptide start residue: 234) (UniProt Q9BV68)”: the log2 fold change was -0.503.

With “CBWD1 (peptide sequence: FQEDQVCT, peptide start residue: 388) (UniProt Q9BRT8)”, the log2 fold change was -0.285.

For “UniProt Q9BS26 (peptide sequence: VDCDQHSDIAQR, peptide start residue: 90)”, the log2 fold change was determined as 0.507.
